Laboratory results as given in the supplement of paper PMC4604168 (melanoma cell lines).
The other results are listed elsewhere or left out. Single values are uncertain, as repeats are few or missing.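 Cells were imaged in 1,536-well plates, and nuclei stained with an antibody against cleaved PARP were counted against all DNA-stained nuclei to give the apoptosis fraction. Screening doses were chosen to leave most cells alive, and resting and induced cleaved-PARP levels differ strongly between cell lines.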

Assays:
Assay in all cases: cleaved PARP positive nuclei fraction relative to DMSO control; melanoma cells; higher = more apoptosis
Conditions in all cases: library dose: low library concentration; 72 h
MZ2-MEL = system: MZ2-MEL
MeWo = system: MeWo
RPMI7951 = system: RPMI7951
RVH-421 = system: RVH-421
SkMel28 = system: SkMel28
SkMel2 = system: SkMel2
SkMel30 = system: SkMel30
SkMel5 = system: SkMel5
UACC257 = system: UACC257
UACC62 = system: UACC62

Row | Structure (SMILES) | cleaved PARP positive nuclei fraction (MZ2-MEL) [%] | cleaved PARP positive nuclei fraction (MeWo) [%] | cleaved PARP positive nuclei fraction (RPMI7951) [%] | cleaved PARP positive nuclei fraction (RVH-421) [%] | cleaved PARP positive nuclei fraction (SkMel28) [%] | cleaved PARP positive nuclei fraction (SkMel2) [%] | cleaved PARP positive nuclei fraction (SkMel30) [%] | cleaved PARP positive nuclei fraction (SkMel5) [%] | cleaved PARP positive nuclei fraction (UACC257) [%] | cleaved PARP positive nuclei fraction (UACC62) [%]
1 | C[C@]1(O)C[C@@H](c2nc(-c3ccc4ccc(-c5ccccc5)nc4c3)c3c(N)nccn32)C1 + Oc1cc(-c2nc(-c3ccccc3)[nH]c2-c2ccncc2)ccc1Cl [L779450] (first compound 0.4 µM, partner dose 0.2 µM) | 84.7 | 65.5 | 114 | 99 | 308 | 112 | 102 | 79.2 | 122 | 224
2 | C[C@@H](N)c1ccc(C(=O)Nc2ccnc3[nH]ccc23)cc1 + O=C(Nc1cccc(Cl)c1)Nc1ncc(CCNc2ncnc3ccsc23)s1 [SNS314] (first compound 0.4 µM, partner dose 0.0008 µM) | 249 | 250 | 163 | 86.3 | 52.8 | 69.7 | 58.9 | 110 | 189 | 107
3 | COc1ccc(C2=N[C@@H](c3ccc(Cl)cc3)[C@@H](c3ccc(Cl)cc3)N2C(=O)N2CCNC(=O)C2)c(OC(C)C)c1 [Nutlin-3] + Oc1cc(-c2nc(-c3ccccc3)[nH]c2-c2ccncc2)ccc1Cl [L779450] (first compound 0.1 µM, partner dose 0.2 µM) | 140 | 339 | 148 | 27 | 158 | 99.2 | 48.7 | 69.2 | 162 | 134
4 | NC(=O)c1ccc(N(C(N)=O)c2c(F)cccc2F)nc1-c1ccc(F)cc1F + NCC(=O)Nc1ccc(-n2nc(C(F)(F)F)cc2-c2ccc3c(ccc4ccccc43)c2)cc1 [OSU03012] (first compound 0.4 µM, partner dose 1 µM) | 33.5 | 112 | 171 | 79 | 131 | 35.1 | 130 | 141 | 319 | 714
5 | C[C@]1(O)C[C@@H](c2nc(-c3ccc4ccc(-c5ccccc5)nc4c3)c3c(N)nccn32)C1 + CCc1ccc(CCOc2ccc(CC3SC(=O)NC3=O)cc2)nc1 [pioglitazone] (first compound 0.4 µM, partner dose 2 µM) | 84.3 | 46.2 | 120 | 63.1 | 108 | 133 | 87.9 | 79.5 | 215 | 169
6 | CN(c1ncccc1CNc1nc(Nc2ccc3c(c2)CC(=O)N3)ncc1C(F)(F)F)S(C)(=O)=O + N#Cc1c(O)c2c(-c3ccc(-c4ccccc4O)cc3)csc2[nH]c1=O [A769662] (first compound 0.08 µM, partner dose 2 µM) | 196 | 74.9 | 183 | 78.9 | 48.1 | 179 | 99.6 | 88.5 | 82.1 | 79
7 | Cn1cnc2c(F)c(Nc3ccc(Br)cc3Cl)c(C(=O)NOCCO)cc21 [selumetinib] + O=c1cc(-c2cccc3c2Sc2ccccc2S3)oc(N2CCOCC2)c1 [KU55933] (first compound 0.015 µM, partner dose 1 µM) | 174 | 148 | 35.5 | 154 | 87.6 | 227 | 97.9 | 54.5 | 130 | 172
8 | Cn1cnc2c(F)c(Nc3ccc(Br)cc3Cl)c(C(=O)NOCCO)cc21 [selumetinib] + COc1cc2ncnc(Nc3ccc(Oc4ccccc4)cc3)c2cc1OC [SrcI1] (first compound 0.015 µM, partner dose 2 µM) | 220 | 115 | 67.3 | 104 | 128 | 181 | 238 | 70 | 30.2 | 50.8
9 | COc1ccc(C2=N[C@@H](c3ccc(Cl)cc3)[C@@H](c3ccc(Cl)cc3)N2C(=O)N2CCNC(=O)C2)c(OC(C)C)c1 [Nutlin-3] + OCCn1cc(-c2cnc3nnn(Cc4ccc5ncccc5c4)c3n2)cn1 [PF04217903] (first compound 0.1 µM, partner dose 1 µM) | 85.7 | 307 | 112 | 83.3 | 68.7 | 131 | 68.8 | 195 | 134 | 63.1
10 | CCCCCCCCc1ccc(CCC(N)(CO)CO)cc1 [fingolimod] + NC(=O)Nc1cc(-c2cccc(F)c2)sc1C(=O)N[C@H]1CCCNC1 [AZD7762] (first compound 2 µM, partner dose 0.02 µM) | 159 | 89.9 | 187 | 174 | 139 | 108 | 82.2 | 135 | 27.3 | 141
11 | CCN(CC)CCNC(=O)c1c(C)[nH]c(/C=C2\C(=O)Nc3ccc(F)cc32)c1C [sunitinib] + C=CCn1c(=O)c2cnc(Nc3ccc(N4CCN(C)CC4)cc3)nc2n1-c1cccc(C(C)(C)O)n1 [MK1775] (first compound 0.4 µM, partner dose 0.02 µM) | 156 | 179 | 57.3 | 117 | 278 | 66.1 | 222 | 92.9 | 67.6 | 67.3
12 | COc1ccc(C2=N[C@@H](c3ccc(Cl)cc3)[C@@H](c3ccc(Cl)cc3)N2C(=O)N2CCNC(=O)C2)c(OC(C)C)c1 [Nutlin-3] + CC(C)CCN1c2nc(Nc3cc(F)c(O)c(F)c3)ncc2N(C)C(=O)C1C [BID1870] (first compound 0.1 µM, partner dose 0.2 µM) | 56.9 | 63.1 | 32.9 | 91 | 85 | 65.5 | 120 | 69.6 | 37.8 | 196
13 | NC(=O)c1ccc(N(C(N)=O)c2c(F)cccc2F)nc1-c1ccc(F)cc1F + OCCn1cc(-c2cnc3nnn(Cc4ccc5ncccc5c4)c3n2)cn1 [PF04217903] (first compound 0.4 µM, partner dose 1 µM) | 88.3 | 101 | 226 | 30.1 | 58.7 | 152 | 58.1 | 63.4 | 109 | 178
14 | CC1(C)CCC(c2ccc(Cl)cc2)=C(CN2CCN(c3ccc(C(=O)NS(=O)(=O)c4ccc(N[C@H](CCN5CCOCC5)CSc5ccccc5)c(S(=O)(=O)C(F)(F)F)c4)cc3)CC2)C1 + COc1cc2ncnc(Nc3ccc(Oc4ccccc4)cc3)c2cc1OC [SrcI1] (first compound 0.4 µM, partner dose 2 µM) | 144 | 289 | 85.6 | 319 | 179 | 173 | 131 | 96.2 | 143 | 242
15 | Cn1cnc2c(F)c(Nc3ccc(Br)cc3Cl)c(C(=O)NOCCO)cc21 [selumetinib] + CCc1ccc(CCOc2ccc(CC3SC(=O)NC3=O)cc2)nc1 [pioglitazone] (first compound 0.015 µM, partner dose 2 µM) | 361 | 112 | 90.1 | 129 | 104 | 48.7 | 51.7 | 147 | 90.5 | 183
16 | Cn1sc(=O)n(Cc2ccccc2)c1=O + Oc1cc(-c2nc(-c3ccccc3)[nH]c2-c2ccncc2)ccc1Cl [L779450] (first compound 0.4 µM, partner dose 0.2 µM) | 48.6 | 62.2 | 152 | 115 | 132 | 51.2 | 34.5 | 66.9 | 57.1 | 244
17 | Cn1cnc2c(F)c(Nc3ccc(Br)cc3Cl)c(C(=O)NOCCO)cc21 [selumetinib] + O=C(O)c1ccc(-c2c[nH]c3ncc(-c4ccccc4)cc23)cc1C1CCCC1 [GSK650394] (first compound 0.015 µM, partner dose 0.16 µM) | 267 | 128 | 40.6 | 43.5 | 251 | 159 | 96.9 | 59.7 | 55 | 105
18 | CCCCCCCCc1ccc(CCC(N)(CO)CO)cc1 [fingolimod] + CC(C)CCN1c2nc(Nc3cc(F)c(O)c(F)c3)ncc2N(C)C(=O)C1C [BID1870] (first compound 2 µM, partner dose 0.2 µM) | 41 | 186 | 103 | 97.8 | 286 | 228 | 82.6 | 78.1 | 252 | 74.8
19 | CS(=O)(=O)c1ccc(C(=O)Nc2ccc(Cl)c(-c3ccccn3)c2)c(Cl)c1 [vismodegib] + C=CCn1c(=O)c2cnc(Nc3ccc(N4CCN(C)CC4)cc3)nc2n1-c1cccc(C(C)(C)O)n1 [MK1775] (first compound 1 µM, partner dose 0.02 µM) | 108 | 55.1 | 96.7 | 101 | 345 | 59.2 | 65.8 | 137 | 71.4 | 152
20 | NC(=O)c1ccc(N(C(N)=O)c2c(F)cccc2F)nc1-c1ccc(F)cc1F + O=C(O)C(=O)Nc1sc2c(c1C(=O)O)CCNC2 [TCS401] (first compound 0.4 µM, partner dose 1.66667 µM) | 87.6 | 59.7 | 48 | 135 | 119 | 54.9 | 187 | 68.1 | 125 | 125
21 | NC(=O)c1ccc(N(C(N)=O)c2c(F)cccc2F)nc1-c1ccc(F)cc1F + Cc1cc(N2CCOCC2)cc2[nH]c(-c3c(NC[C@@H](O)c4cccc(Cl)c4)cc[nH]c3=O)nc12 [BMS536924] (first compound 0.4 µM, partner dose 0.2 µM) | 37.5 | 33.2 | 81.4 | 85.2 | 131 | 58 | 243 | 78.7 | 200 | 38.8
22 | NC(=O)c1ccc(N(C(N)=O)c2c(F)cccc2F)nc1-c1ccc(F)cc1F + CCCCCCCCCCCC1=C(O)C(=O)C=C(O)C1=O [Embelin] (first compound 0.4 µM, partner dose 1.2 µM) | 103 | 42.4 | 139 | 57.3 | 115 | 83 | 188 | 147 | 103 | 151
23 | CC1(C)CCC(c2ccc(Cl)cc2)=C(CN2CCN(c3ccc(C(=O)NS(=O)(=O)c4ccc(N[C@H](CCN5CCOCC5)CSc5ccccc5)c(S(=O)(=O)C(F)(F)F)c4)cc3)CC2)C1 + CN(NC(=O)CC(=O)NN(C)C(=S)c1ccccc1)C(=S)c1ccccc1 [STA4783] (first compound 0.4 µM, partner dose 0.006 µM) | 240 | 59.7 | 113 | 21.1 | 140 | 123 | 175 | 281 | 211 | 98.8

Single values from the entries so far.
Under cleaved PARP positive nuclei fraction (SkMel28) [%], C[C@]1(O)C[C@@H](c2nc(-c3ccc4ccc(-c5ccccc5)nc4c3)c3c(N)nccn32)C1 + Oc1cc(-c2nc(-c3ccccc3)[nH]c2-c2ccncc2)ccc1Cl [L779450] (first compound 0.4 µM, partner dose 0.2 µM) is listed with 308
Under cleaved PARP positive nuclei fraction (SkMel30) [%], CCN(CC)CCNC(=O)c1c(C)[nH]c(/C=C2\C(=O)Nc3ccc(F)cc32)c1C [sunitinib] + C=CCn1c(=O)c2cnc(Nc3ccc(N4CCN(C)CC4)cc3)nc2n1-c1cccc(C(C)(C)O)n1 [MK1775] (first compound 0.4 µM, partner dose 0.02 µM) is listed with 222
